## Assay results

Source: PubChem BioAssay AID1159506 (NCATS, 2015).

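Genome-wide siRNA knockdown in TC32 Ewing sarcoma cells, comparing luciferase light from an NR0B1-promoter reporter with a CMV-promoter reporter 48 hours after transfection. Each siRNA was applied at 20 nM. A z-score of the log NR0B1-over-CMV signal, less the median of siRNAs with the same seed; more negative means a stronger specific loss of the NR0B1 reporter.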

The strongest results of the screen are mostly left out here. Sequences are the guide (antisense) strand, without overhang.

strand	target gene	seed-corrected z-score
UAGGAGUCAAUAAGAAGGC	APOM	-0.3688
UCUGGGUCGAUUUCUCCAU	C16orf74	-0.1243
UGGAGUAUGACUGUGGUCC	NAE1	-0.9349
UUUCUUGUGAGCCCAAGCU	ZNF707	0.7136
UCGGUUCCAACGGAAAAGG	CAMTA2	-0.1228
AUAGGAAUAUCAUUGGUCC	CFH	1.273
UCACUCACUGCUACAAGGC	PRMT3	-0.3644
UAAGGGUACCCUUCUGGGA	WDR45	-0.6305
UACGGAUCAAGGAUUGGAG	CNOT11	-0.3405
UAAUUUGCAUCCUCGUUCC	ACRV1	0.7773
UACGUGUGAAGGUUCUCCC	ZNF354C	0.704
UCAUAGAUAACAGCGGCAC	FAM234A	-0.3633
AUCGUAAAACUUCUCAUUG	ZBED4	-0.03328
UAGAUUAUCUGUGACAAUC	ADGRB2	-0.729
UCGAGGACCACUUUGCGCA	PTRHD1	-0.1367
UACUUGAUUGAGAAUACGG	RAPGEF2	-0.2357
UCAAGGGACUGGUAUAUGC	BAIAP2L1	0.06602
UAUAUUGCACCUGCUACUG	DNAH10	-0.2506
UCAGUAGGCACGACUCUUC	RNF168	0.1969
AGAUGUAUUGUUCCGAUCC	LRRC16B	-0.6705
AAAGGUAAUGGAAAAAUGA	OR51G2	0.3999
UUAGUCUCCUGAAUUUUGA	LOC100505502	1.28
UUUGAGUUCAGAAUUUAUG	PHACTR3	0.1002
UAUACGGCAUAUUCUGUUG	SNRPA1	-0.1722
UUGUAGUUCAUCACCAAGC	CHAMP1	1.457
UAUGUGAUGCAGCUCCACC	NLRP1	0.5691
ACCGAUAACAGCAUAAGCC	MFSD4B	0.09127
UGUACUUUAAACUAUGGCA	FAM220BP	1.997
UUGCCGAAAACGAUUACGC	SLC35E2B	-0.2533
AACCGGUUCAUCAAUUUGC	CEP135	-0.07682
AAGCAUUUAUGAUAAGGGC	DCTN6	0.1221
ACAUAGUUCAUUGAGUCUC	ABCD2	0.02157
UCCUUGACGAGAACUGAGC	ARIH2	-0.461
AAUACGACCGUCUUGAUGC	ARRDC5	-0.3417
ACUAGGGUCACUACAAUGG	FREM3	0.1814
UUCUAUCCAUGUCUGAUGC	ANKRD44	0.2182
UCCUUGAUCCCUAUCAGCC	TBX10	-0.3711
UUCGCUAUUUGGUAGCUGU	RAET1G	0.9049
UCCCGAAACAUCUCCAUCG	KCNA2	0.3925
UGAGCUUGCAGAACAUGCC	LOC440895	-0.2752
ACCGUUGUGACCUCAUUGC	SFRP4	-0.8507
AGUGAUACCAUUCUCCUUC	GPATCH4	-0.1398
UGCUCUCAUACAUAUCUGC	CCDC63	-0.02044
UCUUUGUCUACGGGAACAG	SRP68	0.1155
AUUCAUACAAAUUAGAUGC	DCK	-0.9928
UUUCCUUGUCUCCUCAUCC	FRMD6-AS1	-0.7312
UCUGGAACAAUAACUUGUG	GTF2A1	0.39
UUCCAUUAUAGCAAGUACC	TRAF5	-0.4669
UAUCGUGUCAGACCACAGG	TMEM236	0.002249
UAAACAGUAAUCAAUGUAG	MSS51	-0.109
AUUCAGAACACUUGUAAGG	ZNF691	1.066
UACGUCAGUACCACAGGUG	BORCS7	-0.0101
UCUAUAUUCAGAACCUUCC	ARHGDIB	0.774
UAUUGUAGAGAGCAUACUC	FAM120C	0.8598
AAGUUUGUUGAGCAGUUCC	ANKRD13D	0.6875
UAAUACGGCACAGCUUGGG	DACT2	0.07972
UGCAUAAGCAGCAUCGAUG	HDC	-0.2529
UCAGAGCUCCCAAAAGUGC	TMEM54	-0.5487
UAAGUUCUUAGGAUAUGCC	C6orf48	-0.7023
ACCAGGUUAAUUUCCCUUC	BTLA	-1.459
UAAGUUCUGAGGUUUCAGG	CDK15	-0.5089
UUAACAUCAUCCUUUAGAG	SKA3	-1.059
UUUUAGACACUUCAUAUCG	TMX3	0.006806
AGACGAACCAGUGAUUGCC	GPR42	-0.05799

The last 8 entries again:

For UGCAUAAGCAGCAUCGAUG against HDC the result was seed-corrected z-score -0.2529.
For UCAGAGCUCCCAAAAGUGC against TMEM54 the result was seed-corrected z-score -0.5487.
For UAAGUUCUUAGGAUAUGCC against C6orf48 the result was seed-corrected z-score -0.7023.
For ACCAGGUUAAUUUCCCUUC against BTLA the result was seed-corrected z-score -1.459.
For UAAGUUCUGAGGUUUCAGG against CDK15 the result was seed-corrected z-score -0.5089.
For UUAACAUCAUCCUUUAGAG against SKA3 the result was seed-corrected z-score -1.059.
For UUUUAGACACUUCAUAUCG against TMX3 the result was seed-corrected z-score 0.006806.
For AGACGAACCAGUGAUUGCC against GPR42 the result was seed-corrected z-score -0.05799.